{"sequences": {"note": "Sequences of proteins named here, by UniProt entry; tags and fusion partners are left off.", "UniProt P40763": "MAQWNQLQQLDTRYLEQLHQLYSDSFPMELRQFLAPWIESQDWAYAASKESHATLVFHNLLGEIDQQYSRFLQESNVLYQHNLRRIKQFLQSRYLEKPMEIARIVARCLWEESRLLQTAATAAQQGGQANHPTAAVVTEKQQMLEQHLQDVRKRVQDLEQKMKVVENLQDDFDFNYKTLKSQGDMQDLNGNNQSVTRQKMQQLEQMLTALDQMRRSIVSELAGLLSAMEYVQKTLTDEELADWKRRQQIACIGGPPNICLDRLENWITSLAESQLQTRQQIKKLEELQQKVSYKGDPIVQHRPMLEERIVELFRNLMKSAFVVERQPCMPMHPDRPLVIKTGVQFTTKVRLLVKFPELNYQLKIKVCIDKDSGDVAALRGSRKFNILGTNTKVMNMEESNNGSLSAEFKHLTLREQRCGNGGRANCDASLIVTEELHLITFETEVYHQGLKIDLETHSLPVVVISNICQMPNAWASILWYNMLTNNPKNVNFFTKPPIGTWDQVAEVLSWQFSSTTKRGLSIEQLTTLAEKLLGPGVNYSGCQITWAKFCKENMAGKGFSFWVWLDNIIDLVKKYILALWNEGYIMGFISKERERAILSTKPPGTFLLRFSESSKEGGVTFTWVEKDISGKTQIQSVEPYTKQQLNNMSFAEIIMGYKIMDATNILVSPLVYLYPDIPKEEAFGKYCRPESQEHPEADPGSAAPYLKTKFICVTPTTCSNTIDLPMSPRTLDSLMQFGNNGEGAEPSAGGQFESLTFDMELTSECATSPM"}, "source": "paper PMC4517651", "biological_target": "Stat3 (human (endogenous in HPDE)) (UniProt P40763)", "experiment": "co-IP; control or SgK223-overexpressing HPDE cells lysed in normal lysis buffer; IP with Stat3 antibodies or mouse IgG (negative control); Western blot", "note": "Results are given in words; binding and its absence hold for the method and conditions named. In cells and extracts the contact can be indirect. Some entries that bind do so weakly or less than the wild type. Sequences can lack the tags named with a protein.", "data": [{"binder": "SgK223 (rat), expressed from pBabe-puro/myc-Pragmin (protein, UniProt D3ZMK9 1-1368) MSACSDFVEHIWKPGSCKNCFCLRSDHQLTAGHPKARASSLPAGARLPARPEICRLEDEGVNGLAYSKPTIAVKPTMMTSETADLWTEASLSAEVPKVNWRRTPGKLLLQKQEDGPIVYLGSFRGMQKAAGPLACTDSNSRCPPAYTMVGLHNLEARVDRNTALQPVNFQEEKAGREELPSAQESFRQKLAAFTGMTSSCLKGPRPCTSPQPLRESLPSEDDSDQRCSPSGDSEGGEYCSILDCRPESRDAVHNTEGSGRRRGDCSPICWEQGTCTRPTEEEKQALNFPRECCGQGSTANPPHLGPKKPSLNSEAASSSDGLSCGSSRSGANSPFAPHLENDYCSLVKEPTSVKQQDSGCHLVNSGKYVGQAVDLQPPALPREAVQPEPIYAESAKRKKAAPVPQRPEPKKEQVSSGQVWTGDTWSQKTPSGWSQEREGPNAAPQVATTITVIAAHPEEDHRTIYLSSPDSAVGVQWPRGSLNQDLHGSGEEPLVVQGLSSRESHPHNMTENSSKEKPAIPPKLSKSSPGGSPVSPAAPPLTDHSDGNTSGSSVGSQPSSRVPTNLTSSCQTNGVAAGDPAKCPPQANSSVLDQRRPRYQTGAWSRQCRIEEEEEVGQELLSQSWGRELENGIADHSNSSTWHRLHPIDGASGQNGKTNSGMSKSASFAFEFPKDRGRLESFSPPPPPPKSRHLLKMNKSSSDLEKVSQSSAESLSPSFRGAHVSFTTGSTDSLASDSRTCSDGGPSCEATHSPTISGKKLFAPVPFPSGSTEDVSPSGPAQPPPLPQKKIVSRAASSPDGFFWTQGSPKPRTASPKLNLSHSETNVCAHDEPPLSYSLNSGNHPHHVFSSSEPLEKAFKGSVPWAPALGPANSKGGCGSPNLQGRAATSTSSSQLSVSSQASTGSSQLQLHSLLSSISSKEGTYAKLGGLYTQSLARLVTKCEDLFMGGLKTELRFDENSWSLFKLICNKPCCDSGDAIYYGATCSKDPDSIYAVKICKTPEPKSASYCSPSVPVHFNIQQDCGHFVASVPSSMLAFPDTSSKDPAPAAPSHTPAQEQDCVVVITREVPHQTASDFVRDSVASHRAEPEVYERRVCFLLLQLCNGLEHLKEHGIIHRDLCLENLLLVHCNPQSSPGPSANPSVPTTTSRCPSAAPAATTACQGGPGEKHLPRLIISNFLKAKQKPGGTTNLQQKKSQARLAPEIVSASQYRKFDEFQTGILIYELLHQPNPFEVRAQLRERDYRREDLPPLPTLSLYSPGLQQLAHLLLEADPIKRIRIGEAKRVLQCLLWGPRRELVEQPCPSEEVLCNTLHNWIDMKRALMMMKFAEKAVERRRGVELEDWLCCQYLASAEPGALLQSLKLLQLL", "values": [{"measurement": "binding", "result": "binds"}]}]}
